This sample is rich in variants without activity.
B1: tRNA (parent)
chain: GUUCCGUUGGCGUAAUGGUAACGCGUCUCCCUCCUAAGGAGAAGACUGCGGGUUCGAGUCCCGUACGGAACG

Variants of: B1
Assay: yeast fitness relative to wild type (ratio to wild type); higher = fitter; tRNA-Arg(CCU), competitive growth, 37 C, YPD
Method in brief: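 Variants of the tRNA-Arg(CCU) gene, chemically synthesised with a 3% per-site mutation rate at 69 sites, were placed at the native genomic locus in Saccharomyces cerevisiae. The pooled strains were competed in YPD at 37°C for 24 hours in six parallel replicates. Gene amplicons from the start population and from each end population were read by 100-nucleotide paired-end sequencing. Darwinian fitness relative to wild type came from changes in genotype frequencies; genotypes needed ≥ 100 starting reads, and estimates < 0.5 were set to 0.5.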

Variant | yeast fitness
C11G A36C A45G A57C C61G | ≤ 0.5
C11G A36C G56A | 0.533
C11G A42C A43U | ≤ 0.5
C11G A45U C49G | ≤ 0.5
C11G A57G | 0.624
C11G C22A C31A | ≤ 0.5
C11G C22A C31A C61A | ≤ 0.5
C11G C22G U26A C66U | ≤ 0.5
C11G C22U C30A U53A G58A | ≤ 0.5
C11G C24G U64A G68A | ≤ 0.5
C11G C27A C29U G58A | ≤ 0.5
C11G C27G C55A C66G G67U | ≤ 0.5
C11G C29A U35C A43C | ≤ 0.5
C11G C30G A65C | ≤ 0.5
C11G C31A A43C | ≤ 0.5
C11G C33G U53G | ≤ 0.5
C11G C60A | ≤ 0.5
C11G G12A U19C A69C | ≤ 0.5
C11G G12C A20C C24G C55G | ≤ 0.5
C11G G25A C31G | ≤ 0.5
C11G G44C C55U | ≤ 0.5
C11G G44C C61U | ≤ 0.5
C11G G68C | 0.597
C11G U19G A45C | ≤ 0.5

Variant | yeast fitness
C11G U35G C55U | ≤ 0.5
C11G U47A G51C A70U | ≤ 0.5
C11U A14C C31U A36U A69C | ≤ 0.5
C11U A14G G23C A40G | ≤ 0.5
C11U A14G U28A C55G | ≤ 0.5
C11U A15U C60U | ≤ 0.5
C11U A21U C31G G39C C60G | ≤ 0.5
C11U A21U G41C | 0.603
C11U A40C G41C | ≤ 0.5
C11U A42C A69U | 0.773
C11U A43C G68A | 0.545
C11U A45G C49A | 0.567
C11U A45U G58C A69C | ≤ 0.5
C11U C24G A36U A37C | ≤ 0.5
C11U C24U C29A C34U G38A C61U | ≤ 0.5
C11U C27G G44C | ≤ 0.5
C11U C27U C31A U35C C55G C66U | ≤ 0.5
C11U C29G U59C | ≤ 0.5
C11U C29U A42C U59A | ≤ 0.5
C11U C29U C55U | ≤ 0.5
C11U C30A A43U U47A C62A | ≤ 0.5
C11U C34G A40C G51C | ≤ 0.5
C11U C55A G58C | ≤ 0.5
C11U G17C C62U A69U | 0.567

Variant | yeast fitness
C11U G18C C33G G44A C46G C66U | 0.606
C11U G23A | 0.952
C11U G23A C27U A40C C66U | ≤ 0.5
C11U G23C A69C | ≤ 0.5
C11U G38C C62G A69C | ≤ 0.5
C11U G39C U59A | ≤ 0.5
C11U G52A | 0.827
C11U U13G U19A C22G G25A C66U A70U | ≤ 0.5
C11U U16A U54C | ≤ 0.5
C11U U19G C27U G48A | ≤ 0.5
C11U U28G A45C | ≤ 0.5
C11U U53A A65U | ≤ 0.5
C11U U54C C61U | ≤ 0.5
C11U U59A | 0.757
C11U U59A C60U | 0.543
G12A A14G A15G C27U G38A | ≤ 0.5
G12A A15G A36C A37G | ≤ 0.5
G12A A15G A42G | ≤ 0.5
G12A A15G C60G | ≤ 0.5
G12A A15U A21C | ≤ 0.5
G12A A15U C66U | ≤ 0.5
G12A A21U C22U | ≤ 0.5
G12A A37G A42U G52C G67C A69U | ≤ 0.5
G12A A42G C55G | ≤ 0.5

Variant | yeast fitness
G12A A42U A57U | ≤ 0.5
G12A A43C A69G | ≤ 0.5
G12A C22U A40G A43G | ≤ 0.5
G12A C24A A43G G52A A69U A70C | ≤ 0.5
G12A C24A C31U A45U A69U | ≤ 0.5
G12A C27U U32A | 0.702
G12A C29A C33A | ≤ 0.5
G12A C30G C31U C46U C55U U59A C62A | ≤ 0.5
G12A C31U C61G | 0.543
G12A C46U C62U | 0.732
G12A C61G | 0.605
G12A C62G G63A | ≤ 0.5
G12A G25A G51C | ≤ 0.5
G12A G25C C49U G51A | ≤ 0.5
G12A G39U G48C | ≤ 0.5
G12A G44C G58C A69U | ≤ 0.5
G12A G52A | 0.688
G12A G52A U59A A69C A70C | ≤ 0.5
G12A U13C A15U C30U A45C A57G C62U | ≤ 0.5
G12A U13C U16A U19G G23A A57U U59A A69G | ≤ 0.5
G12A U13G U19C A21G C49U G52A U59G | 0.525
G12A U16C C27A A70C | ≤ 0.5
G12A U16G U26A C34U G50A A69U | ≤ 0.5
G12A U35C A42G A65U | ≤ 0.5

Variant | yeast fitness
G12C A14C U54C G68A | ≤ 0.5
G12C A14U C29U | ≤ 0.5
G12C A15U C30U C60G | ≤ 0.5
G12C A20C C31G C66A | ≤ 0.5
G12C A20U C22G G50A | ≤ 0.5
G12C A20U C33U | 0.555
G12C A42U | 0.698
G12C C22A C46A C60G | ≤ 0.5
G12C C22U U28A | 0.52
G12C C27G A36C G44A | ≤ 0.5
G12C C33G U54A U59A G67A | ≤ 0.5
G12C C49A | 0.562
G12C C49U G52C A57C A65C | 0.53
G12C C55U C61G | ≤ 0.5
G12C U16A A43C A57G U59C A70G | ≤ 0.5
G12C U32G G50A C66A | ≤ 0.5
G12U G39A C66G | ≤ 0.5
U13A A14C C22A A43C | ≤ 0.5
U13A A14U C24G U28G C31U | ≤ 0.5
U13A A15G C22G C24U G44A U53G | ≤ 0.5
U13A A37U | 0.63
U13A A40G A42G A57C | ≤ 0.5
U13A C22A A36U A45G | ≤ 0.5
U13A C29A C31G A57U C60A G68C | ≤ 0.5

Variant | yeast fitness
U13A C29U A43G U54A U59C C61A | ≤ 0.5
U13A C29U C60G C62G A70C | ≤ 0.5
U13A C30A C31U A43C U53G G56A | ≤ 0.5
U13A C31A A40G U54G U59A G63A | ≤ 0.5
U13A C33A A36U A70C | 0.518
U13A G17C U32G A42C | ≤ 0.5
U13A G23C C27G U47A A70C | ≤ 0.5
U13A G23C C27G U53C C61A G68A A70C | ≤ 0.5
U13A G48C C55G C66A | 0.584
U13A U19C A20U C29G C33G A37G C49U C66U | 0.601
U13A U26G C27A G39C A42G | ≤ 0.5
U13A U47A C60A G68A | ≤ 0.5
U13C A20G G23C C31U C46G A70U | ≤ 0.5
U13C A20U C34U G68A A70C | ≤ 0.5
U13C A40C G44A | ≤ 0.5
U13C C22U C27A G51C | ≤ 0.5
U13C C27G U35G C49G A57C | ≤ 0.5
U13C C30A C31U A36G G50A A65G C66U | ≤ 0.5
U13C C46A G52A G63C | ≤ 0.5
U13C C46U G48A C66U | ≤ 0.5
U13C C49G C61G A70U | ≤ 0.5
U13C G51C G67C | ≤ 0.5
U13C U47C C62U C66U | ≤ 0.5
U13C U53A | 0.674

Variant | yeast fitness
U13C U54A G67C A69U | ≤ 0.5
U13G C33G C61G | ≤ 0.5
U13G G39C C49G A65G | ≤ 0.5
A14C A20C C34A A42U | ≤ 0.5
A14C A20U C31U G38C G67A | 0.53
A14C A21C C24U A36U A43U | ≤ 0.5
A14C A21C C24U A36U A43U G58C C66A | ≤ 0.5
A14C A21G C29A C61U | ≤ 0.5
A14C A40C U64C | 0.622
A14C A42G A57U | ≤ 0.5
A14C A45U G50C | ≤ 0.5
A14C C29G C30A G63C | ≤ 0.5
A14C C30A C31G U64A | 0.584
A14C C33A C46A | ≤ 0.5
A14C C34A A65U | ≤ 0.5
A14C C49U G58C | ≤ 0.5
A14C C60G | ≤ 0.5
A14C G23A C29U U35C G48A | ≤ 0.5
A14C G25C C66U | 0.531
A14C U26A C34A G44A | ≤ 0.5
A14C U64C A69C | ≤ 0.5
A14G A15G A45U C62U A70U | ≤ 0.5
A14G A20G U28C G68C | ≤ 0.5
